Values of other authors as cited in patent publication US8158161B2, “Methods and pharmaceutical compositions useful for treating psoriasis” (S.U.L.V.E. Ltd., priority 2005, dated 2012).
pIC50: −log10 of the molar value. Some of these results come from one statement about several compounds together.

Tested on: K562 cells
Conditions: Leoni 1997, read-out: IC50 in inhibiting the growth of K562 cells

Structure (SMILES): S=C=NCc1ccccc1 [Benzyl-isothiocyanate]
- pIC50: > 7.00
